## Primary screen of a compound library

The chains behind the UniProt entries cited, without tags or fusion partners.
UniProt E9BF75, entry or part of it: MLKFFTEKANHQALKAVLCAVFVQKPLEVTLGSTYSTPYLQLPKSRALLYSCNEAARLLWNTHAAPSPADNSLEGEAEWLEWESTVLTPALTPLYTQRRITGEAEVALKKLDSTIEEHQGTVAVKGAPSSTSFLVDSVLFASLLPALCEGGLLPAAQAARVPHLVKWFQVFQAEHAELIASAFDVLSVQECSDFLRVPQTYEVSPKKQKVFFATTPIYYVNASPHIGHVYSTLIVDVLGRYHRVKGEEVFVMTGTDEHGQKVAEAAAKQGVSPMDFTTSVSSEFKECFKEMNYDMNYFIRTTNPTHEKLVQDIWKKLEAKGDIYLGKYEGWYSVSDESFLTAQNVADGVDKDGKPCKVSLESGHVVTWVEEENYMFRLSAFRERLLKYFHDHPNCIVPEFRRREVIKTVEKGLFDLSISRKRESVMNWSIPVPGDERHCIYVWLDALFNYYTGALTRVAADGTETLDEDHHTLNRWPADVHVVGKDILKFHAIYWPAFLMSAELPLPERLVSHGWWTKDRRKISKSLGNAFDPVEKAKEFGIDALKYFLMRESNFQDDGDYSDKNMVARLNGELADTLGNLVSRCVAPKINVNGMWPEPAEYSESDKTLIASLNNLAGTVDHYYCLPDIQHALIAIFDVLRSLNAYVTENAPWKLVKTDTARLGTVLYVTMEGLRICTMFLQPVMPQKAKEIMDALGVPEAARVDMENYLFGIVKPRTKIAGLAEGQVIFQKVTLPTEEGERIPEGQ

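Methionyl-tRNA synthetase (putative), Leishmania donovani (UniProt E9BF75). Primary screen of methionyl-tRNA synthetase; the read-out is not stated. The test concentration is not given. Values are per cent inhibition. Size under these conditions: about 68,000 compounds, about 24 of them at 50% or above in at least one test.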

Results are percentages, as filed.
The record does not define 0% and 100%; most values in the screen are far below 50% and negative numbers occur (in some assays of this library far below -100).
The compounds are a random part of those screened.

Compound,inhibition
O=C(NCCCO)c1nnsc1-c1ccccc1,5.949%
O=C(CNc1cc2c(cc1Cl)OCCO2)NCC(F)(F)F,13.86%
CCCc1nc(CN(CC)C(=O)c2ccc3c(c2)nnn3C)no1,10.07%
COc1c(CNCc2ccc(N(C)C)nc2)c(C(C)C)nn1C,17.35%
N#Cc1csc(CNCCOc2ccc(Cl)cn2)c1,-1.805%
COCC1CC2(CCN(c3ccc(C)nn3)CC2)CN1C(C)C (stereo not shown),9.384%
CN(Cc1ccno1)C(=O)c1cccc(CC2CCNCC2)c1,19.16%
Nc1ncnc2nc(C3CCCCN3)ccc12 (stereo not shown),9.302%
Cc1cc(C(=O)N2CCC(CCC(=O)NCCN(C)C)CC2)ccc1O,2.71%
CO[C@H]1CN(Cc2c(C)ccc3ncccc23)CC[C@H]1N,11.02%
Cc1nn(-c2cc(Cl)cc(Cl)c2)c(C)c1CCC(=O)O,11.94%
O=C(N1CCCC1)N1CCO[C@H]2[C@@H](OCc3cccnc3)CC[C@@H]21,8.148%
Cc1cc(C(O)CCNC(=O)c2ccc(Cl)s2)c(C)o1 (stereo not shown),15.49%
CN1CCCN(C(=O)NCCNc2ncccn2)CC1,8.896%
CC(C)C(C(=O)NCc1ccccc1-n1cccn1)N(C)C (stereo not shown),19.83%
CC(=O)Nc1ccc(CN(C)Cc2snnc2C)cc1,15.89%
Cc1nn(C)c(NC(=O)C2SCCc3ccccc32)c1C (stereo not shown),21.6%
Cc1nn(C)c(N2CCOCC2)c1CNC1CCN(C(C)(C)C)CC1,16.43%
O=C(c1cn(-c2cc(N3CCOCC3)ncn2)cn1)N1CCSCC1,13.3%
CCN(Cc1ccco1)C(C)c1nc(C(C)(C)C)no1 (stereo not shown),-1.083%
COCc1ncc(CN2CCC3(CCC(=O)N(CC(C)O)C3)CC2)cn1 (stereo not shown),-0.8475%
CCc1nc(NCCCOC)c2c(n1)c(C)nn2C,16.18%
Cc1ccc(O)c(C(=O)N2CCCC2c2nncn2CC(C)C)c1 (stereo not shown),5.645%
Cc1cccnc1CN1CCN(C(=O)c2cnn(C(C)C)c2)CC1,7.068%
CNc1nc(C(=O)NCc2cccnc2N(C)C2CCCCC2)cs1,15.47%
O=C1CC2(CCCCN2C(=O)c2ccncc2)CN1CC1CC1 (stereo not shown),12.5%
Cc1cc(C(=O)N2CCOC(c3nc(C(C)C)n[nH]3)C2)no1 (stereo not shown),12%
Cc1cnc(NS(=O)(=O)c2ccccc2)s1,8.009%
O=C(Nc1cn[nH]c1)NC1CCN(c2ccccc2OC(F)F)C1 (stereo not shown),16.01%
Cc1ncc2c(n1)CN(Cc1cccc3c1OCCO3)CC2,20.51%
COCCCN1CC2(CCCN(c3ncc(Cl)cc3F)C2)CCC1=O (stereo not shown),21.09%
CN1CCN(S(C)(=O)=O)c2cc(F)ccc21,15.04%
CC(Sc1nc(N)cc(N)n1)c1nc(C(C)(C)C)no1 (stereo not shown),11%
CN1CCCN(c2ccc(F)cc2CNC(=O)c2cccnc2)CC1,2.168%
CCc1cc(=O)[nH]c(-c2ccc(NC(CO)CC(C)C)nc2)n1 (stereo not shown),14.41%
CCC(NC(=O)CNC(=O)OC)c1cc(F)ccc1F (stereo not shown),16.42%
COc1ccc(CCn2cnnc2[S+](C)[O-])cc1 (stereo not shown),14.58%
CCc1cnc(CNC(=O)NCCc2ccc(O)cc2)s1,17.78%
Cc1cccc(N(CCC#N)S(=O)(=O)CC2CCCCO2)c1 (stereo not shown),4.032%
CCN(CC)c1ccc(NC(=O)NC(C)Cn2cccn2)cn1 (stereo not shown),14.61%
CCOc1ccc(N(CCC#N)C(=O)c2ccnc(SC)c2)cc1,7.521%
Cc1ccc(NC(=O)C2CSCN2C(=O)c2cnccn2)c(C)c1 (stereo not shown),10.43%
O=C(Nc1c(F)cccc1Oc1ccccc1)C1CCS(=O)(=O)C1 (stereo not shown),10.14%
CN(C)CCn1ccnc1C1CCCN(C(=O)CCc2cccnc2)C1 (stereo not shown),13.64%
Cn1cc(C(=O)Nc2ccc3c(c2)CN(C(=O)c2ccco2)CC3)nn1,18.63%
CN1CC2(CCN(C(=O)c3cccc(-n4cccn4)c3)CC2)OC1=O,3.75%
Cc1nc(N2CCCC2)nc(C)c1NC(=O)c1ccco1,7.914%
Cc1nn(C)cc1C(=O)N1CCC(C(=O)c2nc3ccccc3s2)CC1,8.721%
O=C(c1ccc(F)cc1)N1CCN2C[C@H](OCc3cccnc3)C[C@H]2C1,11.94%
CSCC(=O)N(C)Cc1ccccc1,25.54%
Cc1cccc(CN2C[C@@H]3COC[C@]3(COCC(=O)N(C)C)C2)n1,6.599%
CCOc1ccc(C(=O)N(C)C)cc1NC(=O)c1ccsc1,18.39%
COCC1CC2(CCN(C(=O)c3cccn3C)CC2)CN1C(C)C (stereo not shown),8.571%
Cc1nc(C)n(CC2CCCCN2Cc2cn3ccccc3n2)n1 (stereo not shown),16.47%
CCn1cncc1CN(Cc1ccc(OC)cc1OC)CC1CCCO1 (stereo not shown),14.58%
COc1cccc(CC(=O)N2CC[C@@H]3[C@H](CC2)N(C)CCS3(=O)=O)c1,15.93%
CCC1(O)CCCN(c2ncnc3c2c(C)nn3C)C1 (stereo not shown),9.719%
Cc1noc([C@]23COC[C@H]2CN(S(=O)(=O)C2CC2)C3)n1,15.79%
c1ccc(CN2Cc3nccn3CC(Cn3cncn3)C2)nc1 (stereo not shown),21.47%
COCCN1CCC2(CC1)CN(C(C)=O)c1ccc(C)cc12,1.46%
CN(C)S(=O)(=O)N1C[C@H]2C[C@H](C(=O)Nc3cccnc3)[C@@H](C1)O2,12.44%
O=C(NCCCN1CCCC1)c1n[nH]c(=O)c2ccccc12,10.12%
Cc1cc(C)c2c(NCCC34CCCN3CCC4)ncnc2n1,14.83%
CCCc1nc(NCCOC)c2c(n1)c(C)nn2CC,24.87%
CC(C)Oc1cccc(Cc2nc3c([nH]2)CCCNC3=O)c1,13.04%

From ChEMBL document CHEMBL3988442, “University of Dundee, Small-Polar-MMV Screening Library” (2021).